Experimental data as given in paper doi:10.1101/2025.05.16.654433.
Where a chain is given by its changes, count along the chain named. These are yes or no findings as the source states them, for the method shown. Binding seen in cells or lysates may run through a third protein. Some results given as binding are weak or reduced against the parent protein; the word gives no strength. Sequences can lack the tags named with a protein.

Sequences of proteins named here, by UniProt entry; tags and fusion partners are left off.
UniProt P48727: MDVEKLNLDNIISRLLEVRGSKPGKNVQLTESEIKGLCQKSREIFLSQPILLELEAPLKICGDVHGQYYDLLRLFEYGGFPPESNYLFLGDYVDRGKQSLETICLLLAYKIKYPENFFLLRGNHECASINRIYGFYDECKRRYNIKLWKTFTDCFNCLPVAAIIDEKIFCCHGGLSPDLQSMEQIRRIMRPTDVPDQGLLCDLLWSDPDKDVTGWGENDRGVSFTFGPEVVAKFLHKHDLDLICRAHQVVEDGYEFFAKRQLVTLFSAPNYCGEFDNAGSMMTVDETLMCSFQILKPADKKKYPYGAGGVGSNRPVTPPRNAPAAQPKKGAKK

Tests used:
[1] = molecular target: T1, APE-1 H591Y ::GFP::3xflag (C. elegans) (UniProt Q9XVN3); test: single-molecule pull-down with TIRF microscopy and photobleaching step counting; APE-1::GFP::3xflag captured from whole-worm lysate on coverslips functionalized with biotinylated anti-flag antibody; colocalized green and far-red (JF646 HaloTag::GSP-2) spots; photobleaching steps classified by CNNs; 50 mM HEPES pH 7.6, 150 mM KCl, 10% glycerol, room temperature
T1 sequence: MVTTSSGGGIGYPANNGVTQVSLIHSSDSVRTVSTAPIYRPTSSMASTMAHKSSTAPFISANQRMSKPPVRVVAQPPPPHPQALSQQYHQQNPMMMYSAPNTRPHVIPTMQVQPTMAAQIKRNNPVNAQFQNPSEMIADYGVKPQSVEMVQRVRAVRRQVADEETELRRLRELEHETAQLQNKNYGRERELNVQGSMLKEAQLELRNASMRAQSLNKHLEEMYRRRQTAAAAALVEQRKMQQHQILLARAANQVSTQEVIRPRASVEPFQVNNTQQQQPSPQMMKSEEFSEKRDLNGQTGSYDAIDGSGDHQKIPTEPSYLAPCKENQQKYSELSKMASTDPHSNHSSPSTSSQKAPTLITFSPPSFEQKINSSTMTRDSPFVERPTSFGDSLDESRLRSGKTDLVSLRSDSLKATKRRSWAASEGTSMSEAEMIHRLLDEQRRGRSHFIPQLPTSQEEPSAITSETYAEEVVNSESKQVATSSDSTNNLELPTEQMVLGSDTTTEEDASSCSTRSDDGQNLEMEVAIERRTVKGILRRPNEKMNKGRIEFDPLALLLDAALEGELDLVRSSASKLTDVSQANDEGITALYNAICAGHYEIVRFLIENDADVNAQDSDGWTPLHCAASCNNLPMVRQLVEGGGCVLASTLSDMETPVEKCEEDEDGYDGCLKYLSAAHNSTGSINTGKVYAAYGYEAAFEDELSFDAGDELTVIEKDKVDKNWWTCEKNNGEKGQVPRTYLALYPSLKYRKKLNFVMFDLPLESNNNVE

[2] = molecular target: T2, APE-1 N583K ::GFP::3xflag (C. elegans) (UniProt Q9XVN3); test: as above
T2 sequence: T1 sequence with N583K, Y591H

binding [1]: binds
binding [2]: binds
Substance: HaloTag::GSP-2 (endogenously HaloTagged GSP-2 labeled with JF646) (from UniProt P48727 1-333) (enzyme)
